Experimental data as given in PMC5372560 (International Journal of Molecular Sciences, 2017).

Assay: general procedure: solution-phase peptide synthesis; HATU, DEPBT, TBTU
Conditions: cyclisation step

Substance | cyclisation yield [%]
Cyclo(Me-Leu-Leu-Phe-Me-Leu-D-Leu) | 34.2
Cyclo(Me-Leu-Leu-Phe-Me-D-Leu-Leu) | 38.5
Cyclo(Me-D-Leu-Leu-Phe-Me-Leu-Leu | 36.5
Cyclo(Me-Leu-D-Leu-Phe-Me-Leu-Leu) | 42.5
Cyclo(Me-Leu-Leu-Phe-Me-Leu-Leu) | 40.2
Cyclo(Me-Leu-Leu-D-Phe-Me-Leu-Leu) | 42.3
